Data as given in PubChem BioAssay AID1259254 (NCATS, 2017).

Screen: 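Genome-wide screen for genes that prevent DNA re-replication in cancer cells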 (primary screen)
Cells: human HCT116 colorectal cancer cells
Reagents: single siRNA against human genes
Timing: 3 days
Read-out: 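Nuclei stained with Hoechst and imaged; cell-cycle phase assigned by DNA content; G2 share scaled per plate, non-targeting siRNA 0%, GMNN siRNA 100%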
Direction: G2 robust z-score and G2 cells, % of GMNN control: higher = more G2 cells, more excess DNA replication; raw share of cells in G2: higher = larger share of cells with G2 DNA content
Active means: 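An siRNA counts as active if its G2 robust z-score lies at least 5 MADs above the screen median; here such calls match roughly 38% of GMNN control or more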
In all, the deposit lists about 59,000 reagents; below is a part drawn at random. About 1,550 of all reagents (2.6%) count as active. 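G2 share is only a proxy for re-replication; each gene was hit by three separate siRNAs, and active genes were retested.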 The raw values are shown without normalisation. Unmarked entries are inactive. Not given: the amount of reagent.

gene	PubChem SID	G2 robust z-score	G2 cells, % of GMNN control	raw share of cells in G2 (%)
FBXO16	SID160759528	-0.627	-1.45	3.08
FBXO16	SID160759529	0.0903	3.6	4.17
FBXO16	SID160759531	-1.01	-4.13	1.46
KLHL42	SID160746231	0.943	9.6	8.13
KLHL42	SID160746232	-0.366	0.396	4.65
KLHL42	SID160746233	2.04	17.3	8.51
SRD5A1	SID160717317	-0.489	-0.471	4.39
SRD5A1	SID160717318	1.5	13.5	8.42
SRD5A1	SID160717319	0.601	7.2	8.1
PRORP	SID160722818	-0.55	-0.9	4.92
PRORP	SID160722819	6.44 (active)	48.2	24.1
PRORP	SID160722820	-0.817	-2.78	2.39
GAL3ST1	SID160722387	2.24	18.7	12.4
GAL3ST1	SID160722388	0.00743	3.02	6.34
GAL3ST1	SID160722389	0.0801	3.53	4.41
TMPRSS3	SID160747859	-0.225	1.39	6.18
TMPRSS3	SID160747860	-0.948	-3.7	3.26
TMPRSS3	SID160747861	16.7 (active)	121	49.2
CDC42BPA	SID160720120	1.55	13.9	9.9
CDC42BPA	SID160720121	0.759	8.31	8.21
CDC42BPA	SID160720122	0.897	9.28	6.65

Active calls (from the list above):
gene	PubChem SID	G2 robust z-score	G2 cells, % of GMNN control	raw share of cells in G2 (%)
PRORP	SID160722819	6.44 (active)	48.2	24.1
TMPRSS3	SID160747861	16.7 (active)	121	49.2

Next reagents follow:
gene	PubChem SID	G2 robust z-score	G2 cells, % of GMNN control	raw share of cells in G2 (%)
TECTA	SID160717900	-0.495	-0.518	4.9
TECTA	SID160717901	0.588	7.11	6.71
TECTA	SID160717902	1.09	10.7	7.12
MRGPRX1	SID160730909	2.13	18	8.78
MRGPRX1	SID160762607	0.957	9.7	9.31
MRGPRX1	SID160762608	-0.132	2.04	5.23
NKX2-1	SID160718088	-0.54	-0.835	4.5
NKX2-1	SID160718089	-0.801	-2.67	4.32
NKX2-1	SID160731836	-0.425	-0.023	4.37
ATG13	SID160723051	0.83	8.81	9.31
ATG13	SID160723053	1.08	10.6	8.35
ATG13	SID160723054	1.08	10.6	7.26
LOC344382	SID160764765	1.17	11.2	7.84
LOC344382	SID160764766	0.456	6.18	5.96
LOC344382	SID160764767	-0.0467	2.64	5.25
CLEC2B	SID160723593	-0.496	-0.524	5.09
CLEC2B	SID160723594	-0.0489	2.62	5.04
CLEC2B	SID160723595	3.04	24.3	12.3
ZNF599	SID160758638	-0.413	0.0625	3.11
ZNF599	SID160758639	0.846	8.92	6.26
ZNF599	SID160758640	1.53	13.8	8.35
LINC00336	SID160767216	1.19	11.3	7.92
LINC00336	SID160767217	2.97	23.9	13
LINC00336	SID160767218	0.237	4.63	6.71
LPCAT4	SID160762209	0.96	9.72	8.26
LPCAT4	SID160762210	1.01	10.1	8.95
LPCAT4	SID160762211	-0.381	0.286	6.09
